Measurements taken from article doi:10.1101/2020.06.11.144329.
No constants are given. Whether binding was seen depends on the method and setting. In cells and extracts the contact can be indirect. Tags and fused reporters may be left off the sequences shown.

Target: T1, IGLR-2∷mCherry (C. elegans) (UniProt P34595)
T1 sequence: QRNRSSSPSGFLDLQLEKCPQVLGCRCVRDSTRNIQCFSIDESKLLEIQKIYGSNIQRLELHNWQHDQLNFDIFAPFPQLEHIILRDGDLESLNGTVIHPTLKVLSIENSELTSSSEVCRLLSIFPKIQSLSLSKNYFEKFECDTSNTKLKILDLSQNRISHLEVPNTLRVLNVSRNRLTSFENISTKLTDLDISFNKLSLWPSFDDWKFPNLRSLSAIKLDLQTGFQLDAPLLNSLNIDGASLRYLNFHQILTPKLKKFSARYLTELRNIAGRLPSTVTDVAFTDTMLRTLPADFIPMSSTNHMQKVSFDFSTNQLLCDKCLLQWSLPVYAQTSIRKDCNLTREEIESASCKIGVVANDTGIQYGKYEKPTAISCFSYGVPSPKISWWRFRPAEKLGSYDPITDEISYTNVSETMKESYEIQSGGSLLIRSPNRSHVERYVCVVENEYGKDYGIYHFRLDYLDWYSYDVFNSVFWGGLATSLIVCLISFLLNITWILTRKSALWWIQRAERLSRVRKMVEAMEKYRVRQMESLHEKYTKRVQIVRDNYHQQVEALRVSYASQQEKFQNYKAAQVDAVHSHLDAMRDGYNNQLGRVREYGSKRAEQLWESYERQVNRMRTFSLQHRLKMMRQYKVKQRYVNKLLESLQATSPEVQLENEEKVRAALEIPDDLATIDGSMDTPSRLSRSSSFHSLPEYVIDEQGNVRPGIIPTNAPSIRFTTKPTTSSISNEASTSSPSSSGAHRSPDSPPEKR
Assay: FRET or BRET

B1: PAQR-1∷GFP (receptor, UniProt Q94177 1-434)
chain: MNPDEVNRALGHYLNDADSGELVVEDSTTVQVKNPEARKTGDKIEVFYSRKTTVVSPTNSDDEDADFCSDSELLPQQEGHRSRATSFAGRIRAGSDDEAMPKHTILRYRRKKGGQWREINLQGTPDKRKDDEDELEVDVKEDRSEQTGIVTKTYEARWKVLKYEHLPEWLQDNEFLRHGHRPPLPSFSECFKSIWSLHTETGNIWTHLIGCVAFFFLACWFLTRPDNHIQFQEKVVFSFFFAGAVLCLGLSFAFHTLSCHSVNVVKIFCKLDYMGISLLIIGSFIPWIYYGFYCRREPKITYIAMVSVLGIGAIVVSLWDKFSESRFRPIRAAVFVGMGCSGVIPTIHYIITDGVHSLFADNSFHWLLLMAFLYLLGAGLYATRTPERFFPGKCDIWFQSHQLFHTCVVIAAFVHYYGISEMAFARLNEQCPVR
binding: no binding
